No constants are given. Whether binding was seen depends on the method and setting. In cells and extracts the contact can be indirect. Here binding means that the protein was enriched with, or labelled near, the bait; the list need not be complete. Tags and fused reporters may be left off the sequences shown.
Biological target: T1, Flag-tagged LRP6 mutant lacking the extracellular domain (LRP6-ΔN) (human) (UniProt O75581)
T1 sequence: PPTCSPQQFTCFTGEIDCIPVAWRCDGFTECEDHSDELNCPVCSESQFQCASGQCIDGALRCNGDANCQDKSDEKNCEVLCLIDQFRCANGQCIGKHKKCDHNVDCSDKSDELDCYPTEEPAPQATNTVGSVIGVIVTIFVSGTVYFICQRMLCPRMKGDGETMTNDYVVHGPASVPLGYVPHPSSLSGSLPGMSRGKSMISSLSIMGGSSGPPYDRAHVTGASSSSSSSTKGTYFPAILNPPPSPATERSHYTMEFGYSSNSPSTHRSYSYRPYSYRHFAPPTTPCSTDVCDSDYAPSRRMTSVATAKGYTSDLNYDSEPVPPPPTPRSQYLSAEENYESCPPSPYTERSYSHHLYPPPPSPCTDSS
Assay: affinity purification with mass spectrometry; HEK293T transfected with N-terminally Flag-tagged LRP6-ΔN or empty vector; RIPA lysate; anti-Flag agarose beads overnight at 4 °C; three washes with RIPA; on-bead trypsin digest; Q Exactive

Chains of the proteins cited; added tags and fusions are not shown.
UniProt Q5BJF2: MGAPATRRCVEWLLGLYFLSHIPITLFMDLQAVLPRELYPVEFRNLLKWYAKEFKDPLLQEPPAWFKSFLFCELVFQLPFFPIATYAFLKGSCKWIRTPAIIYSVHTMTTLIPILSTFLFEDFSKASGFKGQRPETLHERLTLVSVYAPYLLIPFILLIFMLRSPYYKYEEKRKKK
UniProt P49674: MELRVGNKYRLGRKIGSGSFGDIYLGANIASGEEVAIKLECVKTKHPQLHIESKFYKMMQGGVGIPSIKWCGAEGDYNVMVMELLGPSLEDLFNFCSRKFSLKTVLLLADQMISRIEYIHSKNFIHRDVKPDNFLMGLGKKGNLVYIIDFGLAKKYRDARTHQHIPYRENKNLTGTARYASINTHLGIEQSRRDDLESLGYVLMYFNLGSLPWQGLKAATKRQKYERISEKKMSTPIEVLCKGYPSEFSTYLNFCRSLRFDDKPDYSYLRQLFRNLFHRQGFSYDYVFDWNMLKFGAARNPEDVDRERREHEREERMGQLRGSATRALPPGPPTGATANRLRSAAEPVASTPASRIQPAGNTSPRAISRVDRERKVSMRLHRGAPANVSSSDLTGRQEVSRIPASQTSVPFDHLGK

Row | Substance | binding
1 | Transmembrane protein 97 (TMEM97), endogenous in HEK293T (from UniProt Q5BJF2 1-176) | binds
2 | MACF1, endogenous in HEK293T (from UniProt Q9UPN3 1-7388) | binds
3 | CK1ε, endogenous in HEK293T (from UniProt P49674 1-416) (enzyme) | binds

From paper PMC8494741
